In patent US12648572B2, “Proteolytically stable U1-agatoxin-Ta1b variant polypeptides for pest control” (Vestaron Corporation, priority 2020, dated 2026):

Experiment: Glycosylation of TVPs expressed in K. lactis (LC-MS)
Design: species or system Kluyveromyces lactis
Settings: +162 to MW by LC-MS, expression in K. lactis

Row | Sequence | Glycosylation (Y/N)
1 | EPDEICRARMTNKEFTYKSNVCNNCGDQVAACEAECFRNDVYRACHEAQKG (TVP-T43R) [R (Position 43)] | No
2 | EPDEICRARMTNKEFTYKSNVCNNCGDQVAACEAECFRNDVYTACHEAQKG (listed as Eratigena agrestis) [WT Ta1b, reference compound] | Yes
